Patent US20200095339A1
No constants are given. Whether binding was seen depends on the method and setting.

Sequences of proteins named here, by UniProt entry; tags and fusion partners are left off. Residues count along the entry.
UniProt Q08722, residues 19-323: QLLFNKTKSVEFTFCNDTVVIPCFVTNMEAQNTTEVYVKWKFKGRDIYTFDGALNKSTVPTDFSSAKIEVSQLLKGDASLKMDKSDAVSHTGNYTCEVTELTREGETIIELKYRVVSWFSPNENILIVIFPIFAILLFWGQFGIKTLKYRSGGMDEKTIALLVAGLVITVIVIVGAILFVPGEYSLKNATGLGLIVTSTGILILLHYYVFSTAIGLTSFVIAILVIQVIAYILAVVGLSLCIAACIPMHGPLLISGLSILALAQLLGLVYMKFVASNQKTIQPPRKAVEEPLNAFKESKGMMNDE

Target: human CD47 (human) (UniProt Q08722)
Experiment: FACS competition on Jurkat cells (CD20-CD47+) against 25 nM labelled SIRPα-Fc

binding: no binding (tested: about 500 nM)
B1: Rituximab (antibody, V domains shown)
VH: QVQLQQPGAELVKPGASVKMSCKASGYTFTSYNMHWVKQTPGRGLEWIGAIYPGNGDTSYNQKFKGKATLTADKSSSTAYMQLSSLTSEDSAVYYCARSTYYGGDWYFNVWGAGTTVTVSA
VL: QIVLSQSPAILSASPGEKVTMTCRASSSVSYIHWFQQKPGSSPKPWIYATSNLASGVPVRFSGSGSGTSYSLTISRVEAEDAATYYCQQWTSNPPTFGGGTKLEIK
